PubChem BioAssay AID743454 | Peter MacCallum Cancer Centre | 2014

Assay: 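Genes whose loss kills vorinostat-resistant colon cancer cells under vorinostat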 (primary screen)
Cells: human HCT116-VR colon cancer cells, selected for vorinostat resistance
Reagent: siRNA pool against human genes, 40 nM siRNA pool
Timing: vorinostat for 24 h, read-out about 72 h after transfection
Conditions: vorinostat at 2.5 µM final
Measurement: 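Two measures, CellTiter-Fluor viability and luminescent caspase 3/7 activity, each as fold change against same-plate mock wells, mean of duplicates, then screen-wide robust z-score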
Direction: viability robust z-score: higher = more viable cells than screen typical; caspase robust z-score: higher = more caspase 3/7 activity than screen typical
Active means: 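a knock-down is a hit when classed RV1 or RV2 for lowered viability, or CA1 or CA2 for caspase activation; those lethal without drug were dropped; hits were retested singly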
Shown is an unselected part of about 18,000 reagents tested. In the full data, 450 (2.5%) were called active. 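Single biological run; no consistent viability z cut-off exists, so the class columns, not z-scores, define the calls.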 Entries without a mark were called inactive.

| gene symbol | viability hit class | caspase hit class | viability robust z-score | caspase robust z-score |
| --- | --- | --- | --- | --- |
| MBOAT7 (GeneID 79143) | no change | no change | -0.38 | 1.15 |
| XBP1 (GeneID 7494) | no change | no change | 1.68 | 0.2 |
| APOM (GeneID 55937) | no change | no change | 0.73 | 2.73 |
| ATP2B1 (GeneID 490) | no change | no change | 1.19 | -0.68 |
| SOCS3 (GeneID 9021) | no change | no change | 0.28 | -0.28 |
| TENM1 (GeneID 10178) | no change | no change | 1.29 | 1.54 |
| NOL11 (GeneID 25926) | no change | no change | -1.7 | 1.72 |
| OR52W1 (GeneID 120787) | no change | no change | 0.59 | 0.56 |
| IGSF22 (GeneID 283284) | no change | no change | 0.76 | 1.91 |
| LIPN (GeneID 643418) | no change | no change | -1.02 | 0.28 |
| SET (GeneID 6418) | no change | no change | -0.61 | -0.3 |
| ISCA1P1 (GeneID 389293) | no change | no change | 0.13 | -1.15 |
| TAC4 (GeneID 255061) | no change (active) | CA1 (caspase activation) | 1.84 | 5.45 |
| ACIN1 (GeneID 22985) | no change | no change | -1.5 | 0.36 |
| EPCAM (GeneID 4072) | no change | no change | 0.95 | -0.65 |
| ESR1 (GeneID 2099) | no change | no change | 0.32 | -0.06 |
| NOC2L (GeneID 26155) | no change | no change | -1.41 | 1.08 |
| CD276 (GeneID 80381) | no change | no change | 1.58 | 0.43 |
| CTSD (GeneID 1509) | no change | no change | 0.85 | -0.29 |
| GOSR1 (GeneID 9527) | no change | no change | 0.01 | -0.35 |
| TYRO3 (GeneID 7301) | no change | no change | 0.66 | -0.29 |
| DNASE1L2 (GeneID 1775) | no change | no change | 0.83 | 1.9 |
| SLC25A12 (GeneID 8604) | no change | no change | 1.22 | 0.92 |
| WDHD1 (GeneID 11169) | no change | no change | -2.4 | 0.66 |
| SAE1 (GeneID 10055) | no change | no change | 0.61 | -0.44 |
| MPPED2 (GeneID 744) | no change | no change | -0.74 | 1.21 |
| SPHKAP (GeneID 80309) | no change | no change | 0.6 | 2.05 |
| MATK (GeneID 4145) | no change | no change | 0.97 | 3.72 |
| TMC5 (GeneID 79838) | no change | no change | -0.26 | 0 |
| SCIN (GeneID 85477) | no change | no change | -0.1 | 0.38 |
| PCK2 (GeneID 5106) | no change | no change | 0.37 | -0.14 |
| C10orf67 (GeneID 256815) | no change | no change | 0.5 | -0.04 |
| PEPD (GeneID 5184) | no change | no change | 0.02 | -0.45 |
| SYNE2 (GeneID 23224) | no change | no change | -0.32 | 0.16 |
| TFIP11 (GeneID 24144) | no change | no change | -1.96 | -0.36 |
| DEFA6 (GeneID 1671) | no change | no change | 0.42 | -0.58 |
| CGB5 (GeneID 93659) | no change | no change | -0.19 | -0.7 |
| HMGXB4 (GeneID 10042) | no change | no change | 0.39 | 0.57 |
| IFIT3 (GeneID 3437) | no change | no change | 0.72 | 0.23 |
| IL12RB2 (GeneID 3595) | no change | no change | -0.1 | -0.24 |
| SAR1B (GeneID 51128) | RV2 (reduced viability) (active) | no change | -3.99 | 3.25 |
| FUZ (GeneID 80199) | no change | no change | 0.68 | -0.24 |
| TNIP3 (GeneID 79931) | no change | no change | -1.56 | -1.04 |
| ASS1 (GeneID 445) | no change | no change | 1.49 | 0.67 |
| GPN3 (GeneID 51184) | no change | no change | -1.54 | 2.91 |
| ADORA1 (GeneID 134) | no change | no change | -1.33 | 1 |
| SERPINA3 (GeneID 12) | no change | no change | 0.06 | 2.79 |
| GLOD4 (GeneID 51031) | no change | no change | 1.05 | -0.7 |
| APOBEC2 (GeneID 10930) | no change | no change | 0.28 | -0.24 |
| CACNA1A (GeneID 773) | no change (active) | CA2 (caspase activation) | -1.47 | 5.94 |
| ETV6 (GeneID 2120) | no change | no change | 0.8 | 0.01 |
| COL4A3 (GeneID 1285) | no change | no change | 1.06 | -0.87 |
| MBD3L2 (GeneID 125997) | no change | no change | -0.36 | -0.42 |
| GALNTL6 (GeneID 442117) | no change | no change | 0.47 | 0.34 |
| EIF2S2 (GeneID 8894) | no change | no change | -4.27 | -0.6 |
| ESYT1 (GeneID 23344) | no change | no change | 0.5 | 1.95 |
| MAGEA2B (GeneID 266740) | no change | no change | -1.06 | -0.6 |
